Experimental findings from paper PMC7819943, “Rice protein-binding microarrays: a tool to detect cis-acting elements near promoter regions in rice” are described below.

Amino acid sequences for entries named in this document (tags omitted).
UniProt Q0JBA9, entry or part of it: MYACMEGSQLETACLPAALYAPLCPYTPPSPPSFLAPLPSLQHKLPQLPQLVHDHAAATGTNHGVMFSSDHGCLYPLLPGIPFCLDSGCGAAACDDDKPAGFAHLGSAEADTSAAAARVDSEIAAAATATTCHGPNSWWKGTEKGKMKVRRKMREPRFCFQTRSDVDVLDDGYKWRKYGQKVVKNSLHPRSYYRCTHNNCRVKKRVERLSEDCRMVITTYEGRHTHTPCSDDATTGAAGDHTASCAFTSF

This is one part of the list.

The assay has as its target OsWRKY34 (Oryza sativa, UniProt Q0JBA9 1-250). The assay can be described thus: protein-binding microarray (RPBM); PBS, 2% BSA, 51.3 ng/ul salmon testes DNA, 50 uM zinc acetate, 200 nM TF, 25 C, 1 h; high values mean tight binding. The note with it: protein: recombinant; tags: N-terminal polyhistidine and DsRed monomer fusion (pET32a); label: CyDye5-dUTP incorporated in the synthesized complementary strand; 3' TTTTT single-stranded linker to array surface; dsDNA, one strand shown. In short, it runs like this: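 A custom Agilent array was converted to double-stranded form by primer extension with Cy5-dUTP and blocked with 2% BSA. Protein at 200 nM in PBS with 2% BSA, salmon testes DNA and 50 µM zinc acetate was applied for 1 h at 25 °C, followed by washing. The proteins were polyhistidine–DsRed N-terminal fusions of transcription factors, expressed in E. coli BL21-CodonPlus and Ni–NTA-purified. The binding signal is per-feature fluorescence intensity (arbitrary units) from an Axon 4000B scanner.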
In the case of “ACATGTCGCTCACCGCTGTGAGATTCCTTAACCGGGCTAGCGGAGTCACCTAGTGCAG”, the binding signal is 8340 fluorescence intensity (a.u.).

“TGGCCTGCGGGACTTCACCCTCGTTCGCTGCCTGGGCGCCCGGAGTCACCTAGTGCAG”: the binding signal is 8490 fluorescence intensity (a.u.). As for “CTCGCTAACGTCTCTCTGCCGCTGTCCCCTTCTCCGGATCCGGAGTCACCTAGTGCAG”, the binding signal was 12400 fluorescence intensity (a.u.). With “TCCATATACTCCCTCCGTCCCTAAATATTTGACGCCATTGCGGAGTCACCTAGTGCAG” the figure was 8190 fluorescence intensity (a.u.); with “GACCGCGCATCGTCTCCTCCGCCAGCAAACCACTGCTCTTCGGAGTCACCTAGTGCAG”, 9210 fluorescence intensity (a.u.). As for “AAGGGTGATTAACTTTGGGAAGGGTTGGGGCAGTTGATGTCGGAGTCACCTAGTGCAG”, the figure is 9440 fluorescence intensity (a.u.); as for “CCGCCGCCAGCCGCCACCACTCCGGCCCATGCCCGCCGCCCGGAGTCACCTAGTGCAG”, 9620 fluorescence intensity (a.u.); as for “TCTCCGTTGTAATATGTTCTTTGTCCTCGATGTGTTTCCGCGGAGTCACCTAGTGCAG”, 11400 fluorescence intensity (a.u.). Take “TTTCACCCTATCACATTGAATATTTGGACACATGCATGGACGGAGTCACCTAGTGCAG”: the binding signal is 8850 fluorescence intensity (a.u.). On to “TCAATCGCACATCCTCCTATCCGGAGGCATGATTTTGTTACGGAGTCACCTAGTGCAG”, for which the binding signal is 8740 fluorescence intensity (a.u.). Regarding “ATTCTTGAAGGCCGTGATGGGGAGGCTGTTCATGGCGCTGCGGAGTCACCTAGTGCAG”, the binding signal was 8510 fluorescence intensity (a.u.). With “ATGTAAGTCATTTTAGCATTTCTCACATTTATATTTATGCCGGAGTCACCTAGTGCAG” the figure was 9330 fluorescence intensity (a.u.); with “TTAGTACTATTAATTTGGTGGGGTTGGGTGGGTGCTGTAACGGAGTCACCTAGTGCAG”, 16700 fluorescence intensity (a.u.).

On to “ATGGCTGAGTTGATTGGTCTTTCATTTGCTAAAGGTATGACGGAGTCACCTAGTGCAG”, for which the binding signal is 8400 fluorescence intensity (a.u.).

Consider “GTCCTTCTACCTTCTTTGCAGTTGGCCGTAATAGTAATACCGGAGTCACCTAGTGCAG”, for which the binding signal is 9180 fluorescence intensity (a.u.). In the case of “CAGTTTATTCCGCGTTCGTGTGTAGCTTACCGTGACTTTTCGGAGTCACCTAGTGCAG”, the binding signal is 11500 fluorescence intensity (a.u.). “AACCTCCGATTTCCAGTCCATTCTCCTCCATGATCCAAACCGGAGTCACCTAGTGCAG”: the binding signal is 9040 fluorescence intensity (a.u.). Take “CTTTCTCCGTTTCTTCCATCTCCGTCAACCTACCGGCGTACGGAGTCACCTAGTGCAG”: the binding signal was 10900 fluorescence intensity (a.u.). On to “CCGTCATACACGCCAGCCCGCTGCTCACGCTGTCGTCACCCGGAGTCACCTAGTGCAG”, for which the binding signal is 8890 fluorescence intensity (a.u.). Regarding “CCATCAGGTGCGGTGGAGAACGAAACCCTACCTCCCAGCCCGGAGTCACCTAGTGCAG”, the binding signal is 8160 fluorescence intensity (a.u.). Turning to “AACCAGCAGTGCGGCACCTTTAATAAATTAAAGGTTTTTTCGGAGTCACCTAGTGCAG”, the binding signal was 8700 fluorescence intensity (a.u.). As to “GGTTACAGATCTGTAGTCCGTTACTCTTCTCTCTCTTCCTCGGAGTCACCTAGTGCAG”, the binding signal is 8820 fluorescence intensity (a.u.).

With “CCTTTTTCTTCTAATCTCCTCATTCTTCTTAATTCTTAAGCGGAGTCACCTAGTGCAG”, the binding signal was 10500 fluorescence intensity (a.u.).

“AAACACGGCCATATTTTCTTTCTGGGTTTTGCAATCTTCTCGGAGTCACCTAGTGCAG”: the binding signal was 8690 fluorescence intensity (a.u.). As to “CCTTATCTCTTTCAGGTGGCACGCAGGGGAGGGAGGGAGCCGGAGTCACCTAGTGCAG”, the binding signal was 10200 fluorescence intensity (a.u.).

With “ACAAGCTTTTTAAGGCCATTTATAACCCTATTATTACACACGGAGTCACCTAGTGCAG”, the binding signal was 8690 fluorescence intensity (a.u.). In the case of “CTATTATTCGATTCTCTCCTGGGCCAAATTGACCTACTCTCGGAGTCACCTAGTGCAG”, the binding signal was 8220 fluorescence intensity (a.u.). Turning to “GCATCCATTGCCCAGTTTGGTAGTAATCCTGGATTCTTTTCGGAGTCACCTAGTGCAG”, the binding signal is 9300 fluorescence intensity (a.u.).

As for “GATAGTGGTCTTGTTTACTTTATAGGAGCTTTCAACCAAACGGAGTCACCTAGTGCAG”, the binding signal is 11000 fluorescence intensity (a.u.). For the sequence “GTTTTTCTCTCTCATTTCTATATGTGTTTGCAGGGGCGGACGGAGTCACCTAGTGCAG”, the binding signal was 11800 fluorescence intensity (a.u.). As to “GCCGCGCTCCTTCCTCGCCAGCCGCCAGCCGCCTCACCCCCGGAGTCACCTAGTGCAG”, the binding signal was 8280 fluorescence intensity (a.u.). For “TTTAGCAGCCTGTTTATAGATTCTTTTTTAAAAAGAATACCGGAGTCACCTAGTGCAG”, the binding signal is 8990 fluorescence intensity (a.u.).

Consider “CTTGTTCTCTCCAGGTTCCAGTGCTAATAATTCCCATACTCGGAGTCACCTAGTGCAG”, for which the binding signal was 9660 fluorescence intensity (a.u.). For the sequence “TTTTCGCTGGTTTTTTTCGCCTTTTTTTTCTGGATCGGACCGGAGTCACCTAGTGCAG”, the binding signal was 9150 fluorescence intensity (a.u.).

With “TCCGTGCTGCAGTTTTCCTTCTCTCTCTTCTCTTCTCTATCGGAGTCACCTAGTGCAG”, the binding signal is 8620 fluorescence intensity (a.u.).

Regarding “AGGATAAGGGTATTTTGGTCATCTCAACAAGAAAAACATTCGGAGTCACCTAGTGCAG”, the binding signal is 9000 fluorescence intensity (a.u.). Take “TCCGATCTTACTCCCCACCCTGTCGCTGTGTGCCTCTCTCCGGAGTCACCTAGTGCAG”: the binding signal was 9340 fluorescence intensity (a.u.). With “CCGTGGCATATAATGTCTATTTTTACTCCCTATTGTTTTTCGGAGTCACCTAGTGCAG” the figure was 8240 fluorescence intensity (a.u.); with “TGTCAGAATCCTGTGTTTTTCCTATTACTCTGTTTTTTCACGGAGTCACCTAGTGCAG”, 11400 fluorescence intensity (a.u.). Take “ATCTTCAGGCTAGACCGCCACCCATGTCCCTGGTAAAACACGGAGTCACCTAGTGCAG”: the binding signal was 8110 fluorescence intensity (a.u.). In the case of “TAGTTTTAATTGTTTTTCCGGATCAAATTGCCACGTAAGCCGGAGTCACCTAGTGCAG”, the binding signal was 8020 fluorescence intensity (a.u.).

Consider “CCCGTTGTCACCAACCTCCACGCAGGATCCGCACCGCCGCCGGAGTCACCTAGTGCAG”, for which the binding signal was 8200 fluorescence intensity (a.u.).
